Reference: patent publication US11130741B2 (Bioimics AB, priority 2016, dated 2021)
At least one compound was matched to its structure with a doubt left.

Tested on: E. coli RNase P RNA, M1 RNA
Experiment: Inhibition of bacterial RNase P activity, IC50 determination (cleavage of pATSerUG by M1 RNA)
Type: biochemical
Conditions: NI = No inhibition

Structure (SMILES): NCCCN1c2ccncc2Sc2cc(-c3cc4ccccc4[nH]3)ccc21 [compound 267, 3-(8-(1H-indol-2-yl)-5H-benzo[b]pyrido[4,3-e] [1,4]thiazin-5-yl)propan-1-amine trifluoro acetic acid]
- IC50: 27 µM
